Measured values reported in paper PMC10212976.
No constants are given. Whether binding was seen depends on the method and setting. Binding seen in cells or lysates may run through a third protein. These calls come from enrichment with a bait or labelling near it, and not all partners need be listed. Where a sequence is shown, tags or fusion partners need not be part of it.

By UniProt entry, the sequences of proteins in these tests, tags left out. Where a name states a change or a piece, a line headed by the entry shows the natural chain unless it says otherwise.
UniProt P15398: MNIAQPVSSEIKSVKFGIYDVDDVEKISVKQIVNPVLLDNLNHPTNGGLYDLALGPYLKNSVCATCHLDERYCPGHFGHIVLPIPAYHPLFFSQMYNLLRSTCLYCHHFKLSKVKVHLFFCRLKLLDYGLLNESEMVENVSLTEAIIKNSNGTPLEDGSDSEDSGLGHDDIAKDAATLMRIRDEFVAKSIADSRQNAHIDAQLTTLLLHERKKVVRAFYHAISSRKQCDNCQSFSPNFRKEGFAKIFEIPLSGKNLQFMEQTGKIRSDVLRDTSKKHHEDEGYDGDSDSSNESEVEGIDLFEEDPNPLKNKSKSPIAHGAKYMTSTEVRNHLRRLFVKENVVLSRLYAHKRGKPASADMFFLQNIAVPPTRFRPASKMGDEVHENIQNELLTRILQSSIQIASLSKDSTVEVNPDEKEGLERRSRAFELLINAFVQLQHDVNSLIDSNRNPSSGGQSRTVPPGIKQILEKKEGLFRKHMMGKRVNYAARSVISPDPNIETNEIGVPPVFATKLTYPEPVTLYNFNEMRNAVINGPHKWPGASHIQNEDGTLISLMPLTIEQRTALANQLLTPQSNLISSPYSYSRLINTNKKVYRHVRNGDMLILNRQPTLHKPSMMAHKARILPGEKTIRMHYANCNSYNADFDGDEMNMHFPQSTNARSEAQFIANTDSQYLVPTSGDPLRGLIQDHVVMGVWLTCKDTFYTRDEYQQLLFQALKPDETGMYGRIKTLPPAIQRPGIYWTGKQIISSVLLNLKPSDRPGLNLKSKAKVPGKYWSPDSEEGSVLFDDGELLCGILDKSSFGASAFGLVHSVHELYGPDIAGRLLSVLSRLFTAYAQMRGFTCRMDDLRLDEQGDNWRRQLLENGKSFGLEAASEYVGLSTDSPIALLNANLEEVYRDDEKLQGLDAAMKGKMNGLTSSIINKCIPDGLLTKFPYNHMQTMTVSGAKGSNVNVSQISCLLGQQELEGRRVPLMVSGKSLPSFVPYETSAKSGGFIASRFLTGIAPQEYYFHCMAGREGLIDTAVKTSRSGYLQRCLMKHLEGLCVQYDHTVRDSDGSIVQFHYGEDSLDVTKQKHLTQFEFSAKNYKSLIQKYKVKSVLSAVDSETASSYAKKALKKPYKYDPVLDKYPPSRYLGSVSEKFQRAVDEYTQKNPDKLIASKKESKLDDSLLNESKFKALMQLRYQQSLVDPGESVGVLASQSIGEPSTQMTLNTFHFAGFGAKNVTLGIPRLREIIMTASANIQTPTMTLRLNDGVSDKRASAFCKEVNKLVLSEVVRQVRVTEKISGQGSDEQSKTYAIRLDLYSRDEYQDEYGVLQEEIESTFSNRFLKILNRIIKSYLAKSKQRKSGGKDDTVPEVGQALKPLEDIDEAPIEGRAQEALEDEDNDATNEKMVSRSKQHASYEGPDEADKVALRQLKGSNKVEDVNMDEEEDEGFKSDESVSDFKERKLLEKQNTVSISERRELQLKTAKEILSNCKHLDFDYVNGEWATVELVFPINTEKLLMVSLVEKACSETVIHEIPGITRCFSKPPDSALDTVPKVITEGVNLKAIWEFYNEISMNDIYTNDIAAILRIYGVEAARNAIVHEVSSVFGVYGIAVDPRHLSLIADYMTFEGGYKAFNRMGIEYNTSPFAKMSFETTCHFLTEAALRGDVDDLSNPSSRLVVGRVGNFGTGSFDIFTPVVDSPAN
UniProt O60179: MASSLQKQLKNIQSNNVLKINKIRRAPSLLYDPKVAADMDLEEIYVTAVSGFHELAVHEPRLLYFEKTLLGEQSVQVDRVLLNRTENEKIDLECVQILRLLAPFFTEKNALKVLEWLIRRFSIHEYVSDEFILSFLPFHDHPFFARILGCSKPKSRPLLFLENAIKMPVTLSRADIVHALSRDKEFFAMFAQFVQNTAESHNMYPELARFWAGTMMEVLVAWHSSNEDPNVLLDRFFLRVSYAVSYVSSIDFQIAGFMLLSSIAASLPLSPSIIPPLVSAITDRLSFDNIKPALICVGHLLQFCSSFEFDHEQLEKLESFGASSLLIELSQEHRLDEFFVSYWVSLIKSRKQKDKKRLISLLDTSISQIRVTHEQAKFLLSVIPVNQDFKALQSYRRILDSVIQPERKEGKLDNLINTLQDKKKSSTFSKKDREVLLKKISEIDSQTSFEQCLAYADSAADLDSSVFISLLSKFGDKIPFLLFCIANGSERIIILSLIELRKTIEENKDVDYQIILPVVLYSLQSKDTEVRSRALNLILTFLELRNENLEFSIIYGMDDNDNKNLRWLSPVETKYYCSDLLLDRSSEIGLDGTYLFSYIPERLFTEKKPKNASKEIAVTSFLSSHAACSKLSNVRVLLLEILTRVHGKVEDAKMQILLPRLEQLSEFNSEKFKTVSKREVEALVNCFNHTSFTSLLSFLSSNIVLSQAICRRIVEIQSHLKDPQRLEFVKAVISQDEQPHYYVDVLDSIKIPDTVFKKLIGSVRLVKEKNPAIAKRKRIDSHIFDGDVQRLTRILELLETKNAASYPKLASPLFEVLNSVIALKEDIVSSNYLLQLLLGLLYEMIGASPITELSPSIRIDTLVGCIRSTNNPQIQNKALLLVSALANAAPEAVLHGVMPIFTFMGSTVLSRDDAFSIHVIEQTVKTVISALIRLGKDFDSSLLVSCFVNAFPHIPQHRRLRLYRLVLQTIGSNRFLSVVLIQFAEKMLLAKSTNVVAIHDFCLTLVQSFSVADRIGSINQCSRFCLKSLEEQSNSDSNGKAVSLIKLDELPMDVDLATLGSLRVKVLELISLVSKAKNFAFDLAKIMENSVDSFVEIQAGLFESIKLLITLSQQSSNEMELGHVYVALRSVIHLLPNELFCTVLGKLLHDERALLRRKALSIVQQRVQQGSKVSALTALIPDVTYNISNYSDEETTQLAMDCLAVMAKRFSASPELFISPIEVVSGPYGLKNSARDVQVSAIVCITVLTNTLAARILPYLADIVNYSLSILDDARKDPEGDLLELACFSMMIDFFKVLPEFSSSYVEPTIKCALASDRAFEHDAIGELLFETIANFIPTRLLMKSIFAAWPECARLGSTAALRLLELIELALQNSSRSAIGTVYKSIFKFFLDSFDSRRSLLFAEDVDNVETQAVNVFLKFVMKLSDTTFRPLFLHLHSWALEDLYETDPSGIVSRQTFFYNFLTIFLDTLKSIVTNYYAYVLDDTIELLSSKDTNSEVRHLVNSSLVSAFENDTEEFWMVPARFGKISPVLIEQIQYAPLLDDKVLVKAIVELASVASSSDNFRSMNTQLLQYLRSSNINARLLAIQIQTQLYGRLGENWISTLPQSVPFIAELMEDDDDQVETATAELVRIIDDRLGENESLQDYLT
UniProt Q9USJ8: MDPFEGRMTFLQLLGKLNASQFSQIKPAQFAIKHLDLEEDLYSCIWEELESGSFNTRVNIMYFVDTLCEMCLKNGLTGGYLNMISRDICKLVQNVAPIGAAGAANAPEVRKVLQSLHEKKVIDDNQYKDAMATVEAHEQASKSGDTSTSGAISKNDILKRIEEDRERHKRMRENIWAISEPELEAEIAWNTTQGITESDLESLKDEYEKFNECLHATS
UniProt Q9USU7: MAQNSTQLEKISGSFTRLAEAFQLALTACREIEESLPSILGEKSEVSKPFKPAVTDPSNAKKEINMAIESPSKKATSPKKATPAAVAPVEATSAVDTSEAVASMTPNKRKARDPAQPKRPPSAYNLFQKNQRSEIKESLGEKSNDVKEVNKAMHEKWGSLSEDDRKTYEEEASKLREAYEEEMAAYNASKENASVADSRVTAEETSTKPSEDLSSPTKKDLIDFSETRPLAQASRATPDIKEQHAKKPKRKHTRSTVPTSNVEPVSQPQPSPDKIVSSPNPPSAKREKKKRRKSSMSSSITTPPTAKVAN
UniProt O13877: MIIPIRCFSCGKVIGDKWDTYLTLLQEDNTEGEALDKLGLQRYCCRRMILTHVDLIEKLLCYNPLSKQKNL

T1: Seb1 fused to the TurboID biotin ligase (S. pombe) (UniProt Q9UTE3)
T1 sequence: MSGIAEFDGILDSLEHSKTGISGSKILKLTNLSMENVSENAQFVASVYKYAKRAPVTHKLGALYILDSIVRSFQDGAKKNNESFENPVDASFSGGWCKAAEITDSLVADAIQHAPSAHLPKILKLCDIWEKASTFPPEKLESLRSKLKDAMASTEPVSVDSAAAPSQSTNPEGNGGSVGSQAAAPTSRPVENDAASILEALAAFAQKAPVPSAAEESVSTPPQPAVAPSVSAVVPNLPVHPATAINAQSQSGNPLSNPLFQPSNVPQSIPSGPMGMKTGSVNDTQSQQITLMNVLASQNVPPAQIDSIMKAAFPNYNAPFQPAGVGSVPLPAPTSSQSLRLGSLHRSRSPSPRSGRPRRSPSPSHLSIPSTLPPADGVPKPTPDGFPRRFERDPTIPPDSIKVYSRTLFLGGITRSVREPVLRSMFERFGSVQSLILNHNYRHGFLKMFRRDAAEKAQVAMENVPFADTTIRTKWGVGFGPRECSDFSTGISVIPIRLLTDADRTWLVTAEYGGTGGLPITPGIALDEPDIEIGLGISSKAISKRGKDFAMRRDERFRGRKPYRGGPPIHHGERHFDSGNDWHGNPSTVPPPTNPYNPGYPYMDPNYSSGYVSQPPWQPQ


Biological target: T1, Seb1 fused to the TurboID biotin ligase (S. pombe)
Test: proximity labelling; Seb1-TurboID expressed in S. pombe grown in YES with 50 µM biotin; RIPA lysate treated with benzonase; biotinylated proteins captured on Streptavidin-Sepharose, on-bead trypsin digest, LC-MS/MS; n = 1

Row | binding | Molecule
1 | binds | Nuc1 (from UniProt P15398 1-1689)
2 | binds | Utp10 (from UniProt O60179 1-1649)
3 | binds | SPCC4b3.08 (from UniProt Q9USJ8)
4 | binds | SPBC28F2.11 (from UniProt Q9USU7)
5 | binds | Rpb10 (from UniProt O13877 1-71)
6 | binds | Rpa34 (protein, UniProt Q9USZ4 1-251) MAKSSEFVNEESSEDESSVSSIEDQHSSKEPEQSVESNNHGESNAQEDVAEIAGLEKVQGKPVLTTNDLKKESNVFLVRLPPGMSADQISQLKVGSKPTVELKQENENTYQIREESTSSVRVFLPDEQGSYTSNEIKTGYVITETPKISQNIDTGITIPTQAPLVPQRKNLRQHFRPIGDAVGPESEPEAEPKSGIKEHILQETGDATVEELQNKGKEKQKELKKGKREKKDEEEKPKKKKQKKSSKKEKN
7 | binds | Rpc40 (protein, UniProt O94616 1-348) MAAVDRSRTEISVLSDRVTDVGSVDFPGYYFDEDNIWDLDKFKKNLKVSITSLDQETMVFEISGIDASIANAFRRILIAEIPTLAFEFVYIINNTSIIQDEVLSHRIGLVPISADPDMFKWFQHPLPGQEATHTDYDTVVFSLNKKCEFNKNAATDEKDPKRLYVNSEVYSGDLIWKPQGRQEERFADNPIRVVNPDIVVAKLRPGQEIDLEAHAILGIGQDHAKFSPVATASYRLLPTIHILSPIEGEDAVKFQKCFPKGVIELEEGPDGKKQARVADVRKDTVSRECLRHPEFADKVQLGRVRDHYLFSVESTGIMKPDVLFIKSIAVLKSKCLAVKSSLQNISSD
8 | binds | Rrn3 (protein, UniProt Q10110 1-599) MPSIISSTNPQYINKCVNNGTMASSTNVPDRTVGSKSFASSVSKNDGRLMQQMLRAFVNKALDDKAEGNFAGYEDLRRQFAAKSDTKDAPSSLQLQNLLSALTCNVSRLDSSNSSLVMSVLDSVWVSRDESFVRCYTRFLGNLISAQSNYLPLVMTMLIQHMLYRPDSLAIHYEHAHMALKYVLELVPRAHSFLYSSILEEFPYKDESLLAQMTYISNVLSICEYVPSIKGPVLHAIIDKIIQIDVEIQVEVDDDDEEEDEVVTDDDGTSNADSEVITASTLYERHTAISSEMTSSTILTPPSLTDTRQLMQQLDQLLYTLFSYLDSNLKSTSRDRYLVYNSLIKSFVNTVLKTFRCRYTQFLIFWASQLDPEFTDIFLGVLTEVCLDPSQPYTLRLSGAMYIGSYVARAKALEKNTIQIIVNMMTRWVEAYLDQCENELSDDLLSKHSVFYAINQSIFYIFCFRWRELCVSDESESMEPRPNEWIPGLEILHRSVLSRLNPLRYCSPNIVLQFAKVANHLNFMYVYSIIEQNRKGIFREGFDTMDAYFPFDPYRLTKSSIIVQPFYNEWQQIPGLDDDEEEEDTDYESSTVMLGESPF
9 | binds | Prh1 (protein, UniProt Q03319 1-719) MVKVSGKLRNGGSITKQNLTDGLVGGQRIKAPNKKKNRKASKNTTKKSTVSVVNFLEQDTDFGANEVVGSDNSSPEKRSENSPSKRKDILEQRKNLPIWEAHDTLCQQIQDNRVIVVVGETGSGKSTQIPQFLNECPYAQEGCVAITQPRRVAAVNLAKRVAAEQGCRLGEQVGYSIRFDDTTSKKTRIKYLTDGMLLRELINDPILSQYHTLILDEAHERTLMTDMLLGFVKKIIKKRPALRVIIMSATLNAERFSEFFDGAEICYISGRQYPVQIHYTYTPEPDYLDACLRTIFQLHTKLPPGDILVFLTGQDEIEALEALIKSYSKQLPSNLPQIQACPLFASLPQEQQLQVFLPALANHRKVVLSTNIAETSVTISGIRYVIDTGLAKIKQFNSKLGLESLTVQPISQSAAMQRSGRAGREAAGQCYRIYTEADFDKLPKETIPEIKRIDLSQAVLTLKARGQNDVINFHYMDPPSKEGLLRALEHLYSIGALDDNGHINDLGYQMSLIPLLPSLARAVLAAREHNCLSEVIDVVSCLSTDSMFLFPQEKRDEAIEARLKFLHSEGDLLTCLNALRQYLESSHDSRKQWCSQNFINRRALKTILDIRKQLREHCLKDGWELNSSPEVNSENLLLSFLSGYITNTALLHPDGSYRTIIGNQTISIHPSSSLFGKKVEAIMYHELVFTTKSYVRGVSSIRSNWLNAVAPHYLARRST
10 | binds | Rpa43 (protein, UniProt O43036 1-173) MPDLSLYKQTVDLYLSIAPGHSRDPLNAIQEHMDSMILSKLPRINGIVLAYDNIRFLEKSAKVMYDSPFSFIWVRVDVLVFSPKKGDCLEGKINLVSPSHIGLLILGIFNASIPRKSIPKDWIFIEPDTTEEQGRWKTNDGNILEPGKDLEFVVDGIQREAGLTMVQGTLANS
11 | binds | Rpa49 (protein, UniProt O14086 1-425) MAGDELKGKKRKYRDSHSGDEKSVKILPLSESSLPPLVTTISGFYPPENTRFQLLKKSNQSNRDASLIGRTERVQFEAKNQSTATVEANYCLAVADKTGRVKKIVPAKYLNTFERNILALQEKDKFLKKKHGTVSGTVMEQRANLGLAFGTRKSQKAIMEESANRVKAETLGDVKDQLVSNVQKATEALPTQEDIAAAQAQDRPIPPVNVGAESIEDAYKLEDIIPKEEFSAIYIKPLLENPDERNWAKLLPYRHSLFINERFQRLLSIEEVDQKRARILYYISLLQAFLFSRRSVGNRETLRKKLADPPEILIDGLIKRFTQTTGIGSVQVSSREVDKIICYILVLCLIVDNYSTDVLTLANDLNVKTMKANELFRTVGCRIMAYTETQRMALGLNKTDAKNHKRAVLKIPLEFPKPRRGRARN
